Test results taken from PMC7458291.
Construct, isoform or probe ends are uncertain for at least one entry. Where cells or extracts were used, other partners may take part.

Columns and labels:
[1] = target: p53 (UniProt P04637); experiment: competition with a labelled probe; conditions: excess unlabeled vs biotin RE2; EMSA: 10 mM Tris pH 7.5, 100 mM NaCl, 1 mM EDTA, 1 mM DTT, 5% glycerol, poly(dI-dC), 20 min room temperature; protein in an extract; residues 1-393
[2] = target: p53 (UniProt P04637); experiment: EMSA; conditions: 38HK nuclear extract; EMSA: 10 mM Tris pH 7.5, 100 mM NaCl, 1 mM EDTA, 1 mM DTT, 5% glycerol, poly(dI-dC), 20 min room temperature; protein in an extract; residues 1-393; label: biotin

Sequence	binding result [1]	binding result [2]
CCTCGTGTTACCTGTTCTGTGCTAC (double strand) [ITGA1 p53RE2 WT unlabeled]	binds	–
CCTCGTGTTACCTGTTCTGTGCTAC (double strand) [ITGA1 p53RE2 WT]	–	binds
